Test results reported in publication PMC7672424 (Nucleic Acids Research, 2020).

Test system: TTA45
Assay: Small-angle X-ray scattering of TTA45
Parameters: species or system human
Settings: 100 μM TTA45 with 400 μM BMPQ-1

Cc1ccc(Cn2cc3c(-c4ccc5c(c4)OCO5)nnc-3c3cc4c(cc32)OCO4)cc1 [BMPQ-1]
gyration radius (Rg) of TTA45, holo form (apo 21.8 Å): 18.9 Å
maximum distance (Dmax) of TTA45, holo form (apo 90 Å): 75 Å
